# Laboratory results published in PubChem BioAssay AID463116 (University of Pittsburgh Molecular Library Screening Center, 2010).
# This is one part of the list. These are further read-outs of the screen, such as a control signal, another cell line or another target. No call is given for them. Most of these compounds were active or inconclusive in the main read-out, so they are no random draw.
# Assay: blockers of dexamethasone-driven GR-EGFP nuclear import – imaging, high-content imaging, GR-EGFP cells, confirmation (AID 463116)
# Details: 3617.4 GR-EGFP nuclear translocation imaging, dexamethasone-induced; measured here: cell count per field; at 20 µM
row,SMILES,z-score
1,COc1ccc(OC)c(N2C(=O)NC(=O)/C(=C\c3ccc([N+](=O)[O-])s3)C2=O)c1,-0.601
2,C=C1C(=O)O[C@H]2C[C@@H](C)[C@@H]3C=CC(=O)[C@@]3(C)C[C@H]12,0.396
3,Cc1ccc(N2C(=O)NC(=O)/C(=C/C=C/c3ccco3)C2=O)cc1,0.288
4,N#CC(C#N)=Cc1ccc(C=C(C#N)C#N)cc1,0.0743
5,COc1ccc(Oc2cc(NC(=O)c3nn(C)cc3[N+](=O)[O-])cc([N+](=O)[O-])c2)cc1,0.431
6,O=C1NC(=O)N(Cc2ccccc2)C(=O)/C1=C/C=C/c1ccco1,-0.0278
7,O=C1NC(=O)N(c2ccccc2)C(=O)/C1=C\c1ccc([N+](=O)[O-])s1,-0.404
8,Cc1cc(C)cc(N2C(=O)NC(=O)/C(=C\C=C\c3ccco3)C2=O)c1,0.951
9,CCN(CC)c1ccc(/C=C/[N+](=O)[O-])cc1,-0.46
10,COc1cccc(N2C(=O)NC(=O)/C(=C/c3ccc([N+](=O)[O-])s3)C2=O)c1,0.101
11,CC[n+]1c(/C=C/C=C/c2ccc(N(C)C)cc2)sc2ccccc21,-0.539
12,C/C(=C\c1ccc(N(C)C)cc1)[N+](=O)[O-],0.385
13,COc1ccc(N2C(=O)NC(=O)/C(=C/c3ccc([N+](=O)[O-])s3)C2=O)cc1,-0.253
14,Cc1nn(Cc2ccccc2)c(C)c1C=C1C(=O)NC(=S)NC1=O,0.104
15,Cc1cc([N+](=O)[O-])c2ccccc2[n+]1[O-],0.373
16,C=CCN1C(=O)/C(=C/c2cc(C)n(-c3cccnc3)c2C)C(=O)NC1=S,0.54
17,CN1CCN(c2ccc([N+](=O)[O-])c3no[n+]([O-])c23)CC1,-3.97
18,CC1(C)C[C@H]2C=C(C=O)[C@]3(C=O)C[C@]3(C)[C@H]2C1,0.754
19,CN1C(=O)NC(=O)/C(=C/c2ccc([N+](=O)[O-])s2)C1=O,0.709
20,Cc1ccc(N2C(=O)NC(=O)/C(=C\C=C\c3ccco3)C2=O)cc1C,0.162
21,C=CCN1C(=O)NC(=O)/C(=C/C=C/c2ccccc2)C1=O,0.621
22,CCOC(=O)c1c(-n2c(C)cc(C=C3C(=O)NC(=S)NC3=O)c2C)sc2c1CCCC2,-0.15
23,CC(C)c1ccc(N2C(=O)NC(=O)/C(=C\C=C\c3ccco3)C2=O)cc1,0.249
24,COc1ccc(OC)c(N2C(=O)NC(=O)/C(=C/c3ccc([N+](=O)[O-])s3)C2=O)c1,0.527

row,SMILES,z-score
1,O=C1NC(=O)N(CCc2ccc(F)cc2)C(=O)/C1=C\C=C\c1ccccc1,-0.438
2,COc1cccc(C2CC3C(=O)C=CC2N3Cc2ccccc2)c1 (configuration not stated),0.565
3,CC(=O)OC(C)(C)/C=C/C(=O)[C@](C)(O)[C@H]1[C@H](O)C[C@@]2(C)[C@@H]3CC=C4[C@H](C[C@H](O)C(=O)C4(C)C)[C@]3(C)C(=O)C[C@]12C,-0.066
4,CCN(CC)c1ccc(/C=N/c2sc3c(c2C#N)C2CCN3CC2)c(O)c1,0.324
5,O=C1NC(=O)N(c2ccccc2)C(=O)/C1=C\C=C\c1ccccc1,-0.0503
6,O=[N+]([O-])c1ccc(NCc2ccccc2)c2nonc12,0.425
7,CC(C)n1c(O)c(C2c3cc(Cl)ccc3Oc3[nH]c(=O)n(C(C)C)c(=O)c32)c(=O)[nH]c1=O (configuration not stated),0.293
8,CCc1ccc(N2C(=O)NC(=O)/C(=C\C=C\c3ccco3)C2=O)cc1,0.455
9,COc1ccc(CN2C(=O)NC(=O)/C(=C/c3ccc([N+](=O)[O-])s3)C2=O)cc1,0.247
10,COc1cc(/C=C/[N+](=O)[O-])ccc1O,-0.0589
11,O=c1[nH]sc2cc(F)ccc12,0.3
12,Cc1ccc(N2C(=O)NC(=O)/C(=C\C=C\c3ccco3)C2=O)cc1,0.317
13,Cc1cccc(N2C(=O)NC(=O)/C(=C\C=C\c3ccco3)C2=O)c1,0.315
14,CCN(CC)c1ccc(C=C2C(=O)NC(=S)NC2=O)cc1,0.218
15,CNc1cc(Cl)c2nonc2c1[N+](=O)[O-],-2.38
16,CCN1C(=O)C(=C/C=C/c2ccco2)C(=O)N(CC)C1=S,-0.252
17,COc1ccccc1N1C(=O)NC(=O)/C(=C/c2ccc([N+](=O)[O-])s2)C1=O,-0.00182
18,O=C1NC(=O)N(Cc2ccccc2)C(=O)/C1=C\C=C\c1ccco1,0.0327
19,COc1ccc(N2C(=O)NC(=O)/C(=C\c3ccc([N+](=O)[O-])s3)C2=O)cc1,0.579
20,O=C1NC(=O)N(Cc2ccc(F)cc2)C(=O)/C1=C\C=C\c1ccco1,0.0709
21,CCOc1ccc(N2C(=O)/C(=C\c3cccs3)C(=O)NC2=S)cc1,-0.143
22,O=c1cc(C(F)(F)F)c2cc3c4c(c2o1)CCCN4CCC3,0.666
23,O=C1NC(=O)N(Cc2ccco2)C(=O)/C1=C/C=C/c1ccco1,-0.331

# Retrieved by structure from the list above:
row,SMILES,z-score
23,O=C1NC(=O)N(Cc2ccco2)C(=O)/C1=C/C=C/c1ccco1,-0.331
22,O=c1cc(C(F)(F)F)c2cc3c4c(c2o1)CCCN4CCC3,0.666
11,O=c1[nH]sc2cc(F)ccc12,0.3
